Source: paper PMC6440985, “Heterogeneous drug tissue binding in brain regions of rats, Alzheimer’s patients and controls: impact on translational drug development” (Scientific Reports, 2019)

Columns and labels:
in vitro = conditions: human, brain homogenate, pH 7.4, fu,brain,ROI Mean
[1] = Regional brain tissue binding by equilibrium dialysis, rat brain homogenate

**Q.** Which fraction unbound (in vitro) does the source give for `CN1C(=O)CN=C(c2ccccc2)c2cc(Cl)ccc21` [Diazepam, diazepam] here?
**A.** Its fraction unbound is 0.058.

**Q.** What about the “between region comparison of fu,brain,ROI” value ([1]; healthy Sprague-Dawley rats, FrCx, PrCx, BG, CRB, HIP, WB) of the same molecule?
**A.** Its value is “higher fu,brain,ROI”.

**Q.** What about the “coefficient of variation in the inter-day assessment of fu,brain” value ([1]; identical whole rat brain homogenate, three experimental days) of the same molecule?
**A.** Its value is 10.3%.
